From PubChem BioAssay AID2685 (National Center for Advancing Translational Sciences (NCATS), 2010)
Hit rate of the full screen: of about 320,000 compounds, about 2,100 (0.66%) were called active. Inconclusive means that the source gave no clear call. Such entries were picked first, then a sample of the others. Calls follow the shape of the dose curve; as a rule, active = well fitted inhibition curve with a large enough effect in the signal ratio, with a control signal flat (not every such curve was filed as active); inconclusive = small, poorly fitted or top-dose-only effect, or effect the other way, or a change in a side signal; inactive = flat fitted curve, though single readings scatter; the % refers to the signal ratio. Where the call is inconclusive, the potency comes from a doubtful curve fit.
% is scaled to controls: 0 for no effect and ±100 for the full control effect; potency is read from the fitted curve at half-maximal effect.

Test: qHTS Assay for Lipid Storage Modulators in Drosophila S3 Cells
Settings: BODIPY lipid droplet fluorescence, 18-24 h, cells fed with added oleic acid; lipid storage change, negative = inhibition: at 46.1 µM (top of the series) unless noted
How it was run: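 Drosophila S3 cells got compounds at several concentrations plus oleic acid (400 uM solution). Laser-scanning cytometry with 488 nm excitation read lipid droplets at 500-530 nm and cells at 575-640 nm. Percent activity was relative to 20 uM Triacsin C.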
For `COc1ccc(NS(=O)(=O)c2cc(NC(=O)CC(C)(C)C)ccc2N2CCCC2)cc1`, the lipid storage change, negative = inhibition was inconclusive: 5.53%. With `NS(=O)(=O)c1ccc(CCNC(=O)COC(=O)CN2C(=O)C3CCCCC3C2=O)cc1` (configuration not stated) the lipid storage change, negative = inhibition was inconclusive: -75.3%. With `O=C1c2ccccc2C(O)N1Cc1ccco1` (configuration not stated) the lipid storage change, negative = inhibition was inconclusive: 10.1%. For `CC(=O)Nc1ccc(NC(=O)C/C(C)=N/NC(=O)C(=O)Nc2ccc(C)c(Cl)c2)cc1`, the lipid storage change, negative = inhibition was inconclusive: 11.6%. In the case of `Cc1ccn2c(-c3csc(NCc4ccco4)n3)c(C)nc2c1`, the lipid storage change, negative = inhibition is reported as inconclusive: 13.6%. With `O=C1c2ccccc2-c2c1cccc2C(=O)N1CCCCCC1` the lipid storage change, negative = inhibition was inconclusive: 8.25%. In the case of `COCCCNCCCOc1ccc(C)cc1Br`, the lipid storage change, negative = inhibition is reported as “inactive”. In the case of `N/C(=N\OC(=O)CC1CCCCC1)c1ccccc1`, the Potency is reported as inconclusive: 6.51 µM [falling, single point]. For `CCCC(C(=O)NCCC(C)C)N(Cc1ccccc1)C(=O)c1snc(C(N)=O)c1N` (configuration not stated), the Potency was active: 3.66 µM. With `Cc1cc(C)n(CC(=O)N2CCCC(N3CCN(c4cccc(C(F)(F)F)c4)CC3)C2)n1` (configuration not stated) the lipid storage change, negative = inhibition was inconclusive: 10.7%. For `COc1ccc(N(CC(=O)Nc2ccccc2OC)S(=O)(=O)c2ccccc2)cc1Cl`, the lipid storage change, negative = inhibition was inconclusive: -63.4%. In the case of `O=C1ON=C(c2cccc([N+](=O)[O-])c2)/C1=C/c1ccc(O)cc1`, the lipid storage change, negative = inhibition is reported as inconclusive: -9.45%. For `CCOc1ccccc1C(=O)OCC(=O)NCCNC(=O)COC(=O)c1ccccc1OCC`, the Potency was inconclusive: 29.1 µM [falling, single point]. In the case of `O=C(O)c1cccc(Nc2cc(Cl)c3nonc3c2[N+](=O)[O-])c1`, the lipid storage change, negative = inhibition is reported as inconclusive: 68.6%. For `COC(=O)c1cc(OC)nc2c1c(=O)n(C)c(=O)n2C`, the lipid storage change, negative = inhibition was inconclusive: -6.03%. In the case of `COc1ccc(N2CCN(CC(=O)Nc3cc(C)cc(C)c3)CC2)cc1`, the Potency is reported as inconclusive: 16.4 µM [falling, partial curve]. With `COc1ccc(NC(=O)CCC(=O)N/N=C/c2cccnc2)cc1` the lipid storage change, negative = inhibition was “inactive”. For `Cc1ccc(C(=O)CC2C(=O)N(c3ccccc3)C(=S)N2c2ccccc2)cc1` (configuration not stated), the Potency was inconclusive: 29.1 µM [falling, single point]. In the case of `COC(=O)c1c(C)oc2ccc(N(C(=O)c3ccncc3)S(=O)(=O)c3ccc4ccccc4c3)cc12`, the lipid storage change, negative = inhibition is reported as inconclusive: -93.4%. With `CCn1c2ccccc2c2cc(NC(=O)CNCC3CCCO3)ccc21` (configuration not stated) the lipid storage change, negative = inhibition was inconclusive: 8.24%. For `COc1cc([N+](=O)[O-])ccc1NC(=O)CCN1C(=O)C2C3CCC(C3)C2C1=O` (configuration not stated), the Potency was inconclusive: 18.4 µM [activator, partial curve]. In the case of `Cc1ccccc1NC(=O)CN(C)S(=O)(=O)c1cccs1`, the lipid storage change, negative = inhibition is reported as inconclusive: 210%. With `Cc1ccc(OCCCCN(C)Cc2ccccc2)c(Br)c1` the lipid storage change, negative = inhibition was inconclusive: -3.04%. In the case of `Cc1ccc(NC(=O)COC(=O)[C@H](C)NC(N)=O)c(C)c1`, the lipid storage change, negative = inhibition is reported as inconclusive: 71.3%. In the case of `COC(=O)C1=C(O)CSC1=Nc1ccc(C)cc1`, the Potency is reported as inconclusive: 13 µM [activator, partial curve]. In the case of `CCN(CC)S(=O)(=O)c1ccc2c(c1)c(=O)c(C(=O)N1CCc3ccccc3C1)cn2C`, the Potency is reported as inconclusive: 7.31 µM [activator, partial curve]. For `O=C1CCC(=O)N1CNc1cccnc1`, the Potency was inconclusive: 4.61 µM [falling, full curve, poor fit]. In the case of `CCOc1ccc(N2CC(NS(=O)(=O)c3cccnc3)CC2=O)cc1` (configuration not stated), the Potency is reported as inconclusive: 5.8 µM [rising, partial curve]. With `COc1ccc(NC(=O)CSc2nnc(-c3ccncc3)o2)c([N+](=O)[O-])c1` the lipid storage change, negative = inhibition was inconclusive: 6.7%. For `CC(NC(=O)c1ccc(CS(C)(=O)=O)cc1)c1cccc2ccccc12` (configuration not stated), the Potency was inconclusive: 6.51 µM [activator, partial curve]. With `Cc1ccc(Cc2cnc(NC(=O)C3CCCO3)s2)cc1` (configuration not stated) the Potency was active: 2.06 µM. In the case of `O=C(NCCCNC(=O)c1cncc(O)c1)c1cncc(O)c1`, the lipid storage change, negative = inhibition is reported as inconclusive: -25.3%. In the case of `CCOC(=O)c1c(C)[nH]c(C(=O)CSc2nnc(-c3ccncc3)n2CC)c1C`, the Potency is reported as inconclusive: 1.46 µM [activator, full curve]. For `NC(=O)c1ccsc1NC(=O)COC(=O)c1ccccc1NCc1ccco1`, the lipid storage change, negative = inhibition was inconclusive: 29.2%. For `COc1ccc(N2CCn3c2nc2c3c(=O)n(CCCc3ccccc3)c(=O)n2C)c(OC)c1`, the Potency was inconclusive: 1.16 µM [activator, full curve]. For `Cc1c(CC(=O)N2CCC(C(N)=O)CC2)c(=O)oc2cc3c(cc12)CCC1(CCCCC1)O3`, the Potency was active: 13 µM. In the case of `CCN(CC)c1ccc(C=NCCc2ccc(S(N)(=O)=O)cc2)cc1`, the lipid storage change, negative = inhibition is reported as inconclusive: 37.7%. In the case of `COc1ccccc1-c1noc2ncnc(Nc3ccc4c(c3)OCO4)c12`, the Potency is reported as inconclusive: 14.6 µM [activator, partial curve]. With `CCOc1cccc(C(=O)Nc2ccccc2C(=O)N2CCN(C)CC2)c1` the Potency was inconclusive: 29.1 µM [activator, single point]. With `CCCn1c(N)c(C(=O)CN2CCN(S(=O)(=O)c3cccs3)CC2)c(=O)[nH]c1=O` the lipid storage change, negative = inhibition was inconclusive: 4.88%. With `COC(=O)C1CCN(c2cc(Cl)nc(N)n2)CC1` the lipid storage change, negative = inhibition was inconclusive: -0.0063%. For `Nc1nonc1NN=C1CCCCC1`, the lipid storage change, negative = inhibition was inconclusive: -4.23%. For `CCOC(=O)N1CCN(C(=O)c2ccc(NS(=O)(=O)c3ccc(F)cc3)cc2)CC1`, the lipid storage change, negative = inhibition was inconclusive: 24.7% [at 9.22 µM]. In the case of `O=S(=O)(c1ccc(-c2csc(Nc3ccc(Br)cc3)n2)cc1)N1CCCC1`, the Potency is reported as inconclusive: 2.59 µM [falling, full curve]. With `COc1ccc(S(=O)(=O)NC(Cc2cnc[nH]2)C(=O)O)cc1` (configuration not stated) the lipid storage change, negative = inhibition was inconclusive: -0.166%. In the case of `CCCCN(CC(=O)NC1CC1)S(=O)(=O)c1ccc(OCC)cc1`, the Potency is reported as inconclusive: 1.46 µM [activator, partial curve]. With `CC(=O)c1cccc(NC(=O)N2C3CCC2CC(NC(=O)C2CC2)C3)c1` (configuration not stated) the lipid storage change, negative = inhibition was inconclusive: -6.58%. With `CC1CCCCN1C(=O)CSc1nnc(-c2ccco2)n1CC1CCCO1` (configuration not stated) the lipid storage change, negative = inhibition was inconclusive: 20.8%. For `COc1ccc(OCCC(=O)OCC(=O)NC(=O)NC(C)(C)C)cc1`, the lipid storage change, negative = inhibition was inconclusive: -187%. In the case of `CCCn1nnc2c(=O)oc3ccccc3c21`, the Potency is reported as inconclusive: 0.058 µM [falling, full curve, poor fit]. For `c1ccn(-c2ncnc3sc4c(c23)CCCC4)c1`, the lipid storage change, negative = inhibition was inconclusive: -17%. With `CCc1nnc(N/N=C/c2c(F)cccc2Cl)n1N` the lipid storage change, negative = inhibition was inconclusive: -28.9%. For `COc1ccc(/C=C/C(=O)N(CC(C)C)CC(C)C)cc1Br`, the lipid storage change, negative = inhibition was inconclusive: 7.66%. In the case of `CCOC(=O)N1CCN(S(=O)(=O)c2ccc(C(=O)N(CCN(C)C)c3nc4ccc(CC)cc4s3)cc2)CC1`, the lipid storage change, negative = inhibition is reported as inconclusive: 22.4%. With `COc1cc(C)ccc1OCc1cc(C(=O)N2CCC(c3ccc(F)cc3)C2)no1` (configuration not stated) the Potency was inconclusive: 20.6 µM [activator, partial curve]. In the case of `CN(CCCOc1ccccc1Br)Cc1ccccc1`, the Potency is reported as inconclusive: 0.0259 µM [falling, full curve, poor fit]. In the case of `CC1CCC(CN2CCN=C2Nc2ccccc2)CC1` (configuration not stated), the lipid storage change, negative = inhibition is reported as inconclusive: -38.9%. With `CSc1nnc2ccc(-c3ccccn3)nn12` the Potency was inconclusive: 8.2 µM [falling, partial curve, poor fit]. For `CCOc1ccc2nc(C)cc(Nc3ccc4c(c3)OCCO4)c2c1`, the lipid storage change, negative = inhibition was inconclusive: 14.2%. For `COc1ccc(C(=O)C2CCN(CC(=O)Nc3cc(C)cc(C)c3)CC2)cc1`, the Potency was inconclusive: 0.13 µM [activator, partial curve, poor fit]. With `Cc1cc(NS(=O)(=O)c2ccc(NC(=O)/C=C/c3ccc(Br)cc3)cc2)no1` the Potency was inconclusive: 4.11 µM [activator, full curve]. In the case of `O=C(Nc1ccccc1Cl)c1ccccc1`, the lipid storage change, negative = inhibition is reported as “inactive”. For `Cc1ccccc1NC(=O)CN(c1ccc(F)cc1)S(C)(=O)=O`, the lipid storage change, negative = inhibition was inconclusive: 17.1%. For `CCn1c(Cn2nnc(-c3ccccc3)n2)nnc1SCC(=O)Nc1cccc(C(C)=O)c1`, the lipid storage change, negative = inhibition was inconclusive: 35.5%. For `CC(=O)c1cccc(S(=O)(=O)N2CCCC(c3nc4c(nnn4Cc4ccccc4Cl)c(=O)[nH]3)C2)c1` (configuration not stated), the lipid storage change, negative = inhibition was inconclusive: -50.9%. In the case of `COc1ccc(C)cc1NC(=O)NC(C)c1ccncc1` (configuration not stated), the lipid storage change, negative = inhibition is reported as inconclusive: 90.3%. With `Cc1ccccc1OCC(=O)Nc1ccc2c(c1)OCCO2` the lipid storage change, negative = inhibition was inconclusive: 27.4%. In the case of `Cc1cc(N2CCCCC2)n2nc(C)c(-c3ccccc3)c2n1`, the lipid storage change, negative = inhibition is reported as inconclusive: 5.21%. For `CSc1ccc(CN2CCN(C(=O)c3ccncc3)CC2)cc1`, the lipid storage change, negative = inhibition was inconclusive: -4.8%. For `CS(=O)(=O)NCCCCNc1ccc(C(F)(F)F)cc1[N+](=O)[O-]`, the lipid storage change, negative = inhibition was “inactive”. For `CC(=O)c1ccc(S(=O)(=O)N2CCN(CC(=O)Nc3ccc(Cl)c([N+](=O)[O-])c3)CC2)cc1`, the Potency was active: 29.1 µM. For `COc1ccc(/C(C)=N\Nc2nc(-c3ccc(Cl)cc3)cc(C(F)(F)F)n2)cc1OC`, the lipid storage change, negative = inhibition was inconclusive: 20.9%. In the case of `CCOc1ccc(NC(=O)CN(C)C(=O)c2ccccc2OCCOc2ccccc2)cc1OCC`, the lipid storage change, negative = inhibition is reported as inconclusive: -1.09%. For `COc1cccc(OC)c1C(=O)N1CC(C)OC(C)C1` (configuration not stated), the lipid storage change, negative = inhibition was inconclusive: -21.1%. For `O=C1CCCN1c1cc(Cl)cc(Cl)c1`, the lipid storage change, negative = inhibition was inconclusive: 79.1%. In the case of `Cc1cc(C)c(S(=O)(=O)NCC23C=CC(O2)C2C(=O)N(c4ccccc4)C(=O)C23)c(C)c1` (configuration not stated), the Potency is reported as inconclusive: 29.1 µM [cytotoxic, single point]. With `CC(Oc1ccc(S(=O)(=O)N2CCCC2)cc1[N+](=O)[O-])C(=O)NC(C)c1ccccc1` (configuration not stated) the Potency was inconclusive: 29.1 µM [falling, single point].
